PubChem BioAssay AID1671190 (National Center for Advancing Translational Sciences (NCATS), 2021)
Values joined by “and” are separate entries in the source; they are usually repeats but may differ in a detail not shown here. Equal entries are not always repeated. In all, about 580,000 compounds went through this assay and about 6,100 (1.1%) were called active. Inconclusive results, whose numbers are uncertain, are shown with a selection of clear calls. The call rests on the fitted dose curve; in most records, active means well fitted inhibition curve with a large enough effect; inconclusive means small, poorly fitted or top-dose-only effect, or another doubt; inactive means no such curve, though single readings can be large or run the other way. Potencies beside an inconclusive call are fits to weak or partial responses and may not hold up.
Potency means the concentration at half of the fitted maximal effect.

Sequences of proteins named here, by UniProt entry; tags and fusion partners are left off. A change or cut given only in a name is not applied to a line headed by its entry.
UniProt P18054: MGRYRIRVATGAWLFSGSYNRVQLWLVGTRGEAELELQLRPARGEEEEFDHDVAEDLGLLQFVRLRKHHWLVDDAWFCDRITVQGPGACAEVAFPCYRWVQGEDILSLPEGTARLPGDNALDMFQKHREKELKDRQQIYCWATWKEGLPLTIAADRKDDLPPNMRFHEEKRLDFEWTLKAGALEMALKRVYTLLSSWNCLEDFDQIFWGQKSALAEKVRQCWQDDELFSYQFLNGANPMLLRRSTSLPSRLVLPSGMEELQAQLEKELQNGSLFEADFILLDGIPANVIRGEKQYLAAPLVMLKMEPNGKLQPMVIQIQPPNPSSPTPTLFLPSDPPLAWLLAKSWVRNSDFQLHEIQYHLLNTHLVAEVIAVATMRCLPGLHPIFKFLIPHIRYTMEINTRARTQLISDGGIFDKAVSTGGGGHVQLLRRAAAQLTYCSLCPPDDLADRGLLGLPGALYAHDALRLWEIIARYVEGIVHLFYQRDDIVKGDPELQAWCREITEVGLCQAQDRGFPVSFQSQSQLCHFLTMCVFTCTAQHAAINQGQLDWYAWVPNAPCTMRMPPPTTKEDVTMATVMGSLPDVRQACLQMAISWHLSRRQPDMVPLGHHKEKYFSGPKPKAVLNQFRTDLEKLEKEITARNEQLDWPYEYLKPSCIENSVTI

The compounds below were run against Polyunsaturated fatty acid lipoxygenase ALOX12 (Homo sapiens) (UniProt P18054) (assay: Primary qHTS assay for inhibitors of human arachidonate 12S-lipoxygenase (ALOX12): Round 2). Details: purified 12hLO, xylenol orange hydroperoxide absorbance; series mostly up to 108 µM.
How it was run: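 Purified human 12hLO (150 nM final) in 25 mM Hepes, 0.01% Triton X-100, pH 7.0 was preincubated 15 min at room temperature with compound. Then 40 uM arachidonic acid was added, 30 min. Hydroperoxide was read by Fe-XO absorbance ratio 573/405 nm.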
In the case of `COc1ccc(OC)c(C(=O)c2c(C)oc3cc([N+](=O)[O-])c(O)c([N+](=O)[O-])c23)c1`, the Potency is reported as inconclusive: 112 µM [inhibitor, single point]. `O=[N+]([O-])c1ccc(Cl)c(/C=N/Nc2nc(Cl)c(Cl)cc2Cl)c1` was tested, and the Potency was inconclusive: 56.2 µM [inhibitor, partial curve, poor fit]. With `O=C(c1cccc(F)c1)N1CCC(N2CCCCCC2)CC1` the Potency was inconclusive: 0.398 µM [inhibitor, partial curve, poor fit]. For `O=[N+]([O-])c1ccc(S(=O)(=O)Nc2nnc(C3CCCCC3)s2)cc1`, the Potency was inconclusive: 79.4 µM [inhibitor, single point]. For `COc1ccc(-c2cc3c(=O)n(CCNC(=O)c4cccc5[nH]ccc45)ccn3n2)cc1`, the Potency was inconclusive: 25.1 µM [inhibitor, full curve]. With `CC1(C)Cc2c(C#N)c(N3CCN(C(=O)c4ccccc4Cl)CC3)nc(-c3ccco3)c2CS1` the Potency was “inactive”. In the case of `CCCCCn1nc(C(=O)Nc2ccn(C)n2)c2ccccc2c1=O`, the Potency is reported as “inactive”. `CNCCN1C(=O)CC[C@H]2CN(c3ncc(Cl)cc3F)CC[C@H]21` was tested, and the Potency was inconclusive: 12.6 µM [inhibitor, partial curve]. For `CCCN(CCC)CCNC(=O)c1cc2c(-c3ccc(Cl)cc3)nn(C)c2s1`, the Potency was inconclusive: 50.1 µM [inhibitor, partial curve, poor fit] and inconclusive: 44.7 µM [inhibitor, partial curve, poor fit]. With `O=C(OCc1cn([C@@H]2C[C@H](c3ccc(Cl)cc3)N(C(=O)C3CCCCC3)C[C@H]2O)nn1)c1ccccc1` the Potency was “inactive”. For `Cc1ccccc1S(=O)(=O)Cc1ccc(C(=O)N2CCN(c3ccc(F)cc3)CC2)o1`, the Potency was “inactive”. With `O=C(CSc1nnc(Cc2ccccc2)o1)N1CCCc2ccccc21` the Potency was inconclusive: 0.891 µM [inhibitor, full curve, poor fit]. In the case of `Cc1ccc2c(c1)c1c(n2C)C(=O)CCC1`, the Potency is reported as inconclusive: 56.2 µM [inhibitor, partial curve, poor fit]. For `COc1ccc(C)cc1NC(=O)Cn1cccc1-c1nc(-c2ccc3c(c2)OCO3)no1`, the Potency was inconclusive: 56.2 µM [inhibitor, partial curve, poor fit]. For `Cc1ccc(NC(=O)N[C@@H](CC(C)C)C(=O)O)cc1Cl`, the Potency was inconclusive: 7.08 µM [inhibitor, partial curve, poor fit]. With `CN(C)S(=O)(=O)c1ccc(C(=O)Nc2ccccc2SCCC#N)cc1` the Potency was inconclusive: 44.7 µM [inhibitor, partial curve, poor fit]. For `O=c1[nH]c(=O)n(Cc2ccco2)c2c1C(C(F)(F)F)(C(F)(F)F)N=C(CCc1ccccc1)N2`, the Potency was inconclusive: 100 µM [inhibitor, single point]. `COc1ccc(-c2cc(-c3cc(F)ccc3O)[nH]n2)cc1OC` was tested, and the Potency was inconclusive: 22.4 µM [inhibitor, full curve, poor fit]. `COc1ccc(-c2cn3nc4c(nc3n2)CCCC4)cc1` was tested, and the Potency was inconclusive: 5.01 µM [inhibitor, full curve, poor fit]. With `COCCn1c(C)cc(C(=O)N2CCCC(Cc3noc(-c4cnccn4)n3)C2)c1C` (stereo unspecified) the Potency was “inactive”. `CN(C)C(=O)Cc1c[nH]c2ncc(-c3cccnc3)cc12` was tested, and the Potency was inconclusive: 39.8 µM [inhibitor, full curve]. For `C[C@@H](NC(=O)c1ccccc1)c1onc(-c2cccnc2)c1C(=O)O`, the Potency was “inactive”. `Cc1nc2c(c(=O)[nH]1)CCN(C(=O)C1(C)CCc3c(C)c(O)c(C)c(C)c3O1)C2` (stereo unspecified) was tested, and the Potency was inconclusive: 8.91 µM [inhibitor, full curve]. With `Cc1ccc(C(=O)NCc2nnc3cc(-c4nc(C(C)C)no4)ccn23)cc1F` the Potency was “inactive”. In the case of `Cc1ccc(Cn2c(=O)c3ccc(C(=O)NC4CCCC4)cc3n3c(=O)[nH]nc23)cc1`, the Potency is reported as inconclusive: 89.1 µM [inhibitor, partial curve, poor fit]. In the case of `CN(C)c1ccc(CNC2(Cc3cc(-c4ccc(F)cc4)on3)COC2)cc1`, the Potency is reported as inconclusive: 70.8 µM [inhibitor, partial curve, poor fit]. `CCN(CC)CCNC(=O)c1cc(-c2ccc(Br)s2)nc2ccccc12` was tested, and the Potency was inconclusive: 39.8 µM [inhibitor, partial curve]. With `COC(=O)C(=Nc1ccccc1)/C(C(=O)C(=O)N(C)c1ccccc1)=C(\O)c1ccc(Cl)cc1` the Potency was inconclusive: 35.5 µM [inhibitor, partial curve]. With `C/C(=N/NC(=O)c1ccn(C)n1)c1ccncc1` the Potency was inconclusive: 112 µM [inhibitor, single point]. `COC(=O)C1=CN(CC(=O)NCc2ccccc2)S(=O)(=O)N=C1C` was tested, and the Potency was “inactive”. With `S=C(NN=Cc1ccccn1)Nc1ccccn1` the Potency was active: 39.8 µM. With `C=CCN(CC=C)C(=S)Nc1ccc2nsnc2c1` the Potency was inconclusive: 50.1 µM [inhibitor, partial curve, poor fit]. With `CCN1CCCC1CN(Cc1cc2ccc(C)cc2[nH]c1=O)C(=S)Nc1ccc(OC)cc1OC` (stereo unspecified) the Potency was “inactive”. `Nc1ccc2nc(SCC(=O)Nc3ccc(N4CCOCC4)c(Cl)c3)sc2c1` was tested, and the Potency was inconclusive: 100 µM [inhibitor, single point]. `CC1CCN(C(=O)COC(=O)/C=C/c2ccc(Br)o2)CC1` was tested, and the Potency was inconclusive: 28.2 µM [inhibitor, partial curve, poor fit]. `CC(NC(=O)/C=C/c1ccc(Cl)cc1)C12CC3CC(CC(C3)C1)C2` (stereo unspecified) was tested, and the Potency was inconclusive: 35.5 µM [inhibitor, partial curve, poor fit]. With `O=C(NC1CCCc2ccccc21)C1(c2ccccc2)CC1` (stereo unspecified) the Potency was “inactive”. With `CNC(=S)NCc1ccc2[nH]c3c(c2c1)CCCC3` the Potency was inconclusive: 44.7 µM [inhibitor, partial curve, poor fit]. In the case of `COc1cccc(NC(=O)N2CCC(N(C)CCC(C)C)CC2)c1`, the Potency is reported as “inactive”. With `COc1ccc(-n2c(C)c(C(C)=O)c3cc(OC(=O)c4ccc(C)cc4)ccc32)cc1` the Potency was “inactive”. In the case of `Cc1cc2[nH]c3c(c[n+](C)c4ccccc34)c2cc1C`, the Potency is reported as inconclusive: 44.7 µM [inhibitor, partial curve, poor fit].
